These are yes or no findings as the source states them, for the method shown. Some binding calls cover weakened binding; strength is not graded here.
Experiments:
[1] = molecular target: Adenomatosis Polyposis Coli (APC) (UniProt P25054); assay: yeast 2-hybrid
[2] = molecular target: APC fragment of amino acids 1690-1778 (UniProt P25054); assay: yeast 2-hybrid
[3] = molecular target: APC fragment of amino acids 1995-2083 (UniProt P25054); assay: yeast 2-hybrid
[4] = molecular target: APC fragment of amino acids 1464-1604 (UniProt P25054); assay: yeast 2-hybrid, β-galactosidase units
[5] = molecular target: APC fragment of amino acids 1516-1595 (UniProt P25054); assay: yeast 2-hybrid, β-galactosidase units

The chains behind the UniProt entries cited, without tags or fusion partners. Where a name states a change or a piece, a line headed by the entry shows the natural chain unless it says otherwise. Residues count along the entry.
UniProt P25054: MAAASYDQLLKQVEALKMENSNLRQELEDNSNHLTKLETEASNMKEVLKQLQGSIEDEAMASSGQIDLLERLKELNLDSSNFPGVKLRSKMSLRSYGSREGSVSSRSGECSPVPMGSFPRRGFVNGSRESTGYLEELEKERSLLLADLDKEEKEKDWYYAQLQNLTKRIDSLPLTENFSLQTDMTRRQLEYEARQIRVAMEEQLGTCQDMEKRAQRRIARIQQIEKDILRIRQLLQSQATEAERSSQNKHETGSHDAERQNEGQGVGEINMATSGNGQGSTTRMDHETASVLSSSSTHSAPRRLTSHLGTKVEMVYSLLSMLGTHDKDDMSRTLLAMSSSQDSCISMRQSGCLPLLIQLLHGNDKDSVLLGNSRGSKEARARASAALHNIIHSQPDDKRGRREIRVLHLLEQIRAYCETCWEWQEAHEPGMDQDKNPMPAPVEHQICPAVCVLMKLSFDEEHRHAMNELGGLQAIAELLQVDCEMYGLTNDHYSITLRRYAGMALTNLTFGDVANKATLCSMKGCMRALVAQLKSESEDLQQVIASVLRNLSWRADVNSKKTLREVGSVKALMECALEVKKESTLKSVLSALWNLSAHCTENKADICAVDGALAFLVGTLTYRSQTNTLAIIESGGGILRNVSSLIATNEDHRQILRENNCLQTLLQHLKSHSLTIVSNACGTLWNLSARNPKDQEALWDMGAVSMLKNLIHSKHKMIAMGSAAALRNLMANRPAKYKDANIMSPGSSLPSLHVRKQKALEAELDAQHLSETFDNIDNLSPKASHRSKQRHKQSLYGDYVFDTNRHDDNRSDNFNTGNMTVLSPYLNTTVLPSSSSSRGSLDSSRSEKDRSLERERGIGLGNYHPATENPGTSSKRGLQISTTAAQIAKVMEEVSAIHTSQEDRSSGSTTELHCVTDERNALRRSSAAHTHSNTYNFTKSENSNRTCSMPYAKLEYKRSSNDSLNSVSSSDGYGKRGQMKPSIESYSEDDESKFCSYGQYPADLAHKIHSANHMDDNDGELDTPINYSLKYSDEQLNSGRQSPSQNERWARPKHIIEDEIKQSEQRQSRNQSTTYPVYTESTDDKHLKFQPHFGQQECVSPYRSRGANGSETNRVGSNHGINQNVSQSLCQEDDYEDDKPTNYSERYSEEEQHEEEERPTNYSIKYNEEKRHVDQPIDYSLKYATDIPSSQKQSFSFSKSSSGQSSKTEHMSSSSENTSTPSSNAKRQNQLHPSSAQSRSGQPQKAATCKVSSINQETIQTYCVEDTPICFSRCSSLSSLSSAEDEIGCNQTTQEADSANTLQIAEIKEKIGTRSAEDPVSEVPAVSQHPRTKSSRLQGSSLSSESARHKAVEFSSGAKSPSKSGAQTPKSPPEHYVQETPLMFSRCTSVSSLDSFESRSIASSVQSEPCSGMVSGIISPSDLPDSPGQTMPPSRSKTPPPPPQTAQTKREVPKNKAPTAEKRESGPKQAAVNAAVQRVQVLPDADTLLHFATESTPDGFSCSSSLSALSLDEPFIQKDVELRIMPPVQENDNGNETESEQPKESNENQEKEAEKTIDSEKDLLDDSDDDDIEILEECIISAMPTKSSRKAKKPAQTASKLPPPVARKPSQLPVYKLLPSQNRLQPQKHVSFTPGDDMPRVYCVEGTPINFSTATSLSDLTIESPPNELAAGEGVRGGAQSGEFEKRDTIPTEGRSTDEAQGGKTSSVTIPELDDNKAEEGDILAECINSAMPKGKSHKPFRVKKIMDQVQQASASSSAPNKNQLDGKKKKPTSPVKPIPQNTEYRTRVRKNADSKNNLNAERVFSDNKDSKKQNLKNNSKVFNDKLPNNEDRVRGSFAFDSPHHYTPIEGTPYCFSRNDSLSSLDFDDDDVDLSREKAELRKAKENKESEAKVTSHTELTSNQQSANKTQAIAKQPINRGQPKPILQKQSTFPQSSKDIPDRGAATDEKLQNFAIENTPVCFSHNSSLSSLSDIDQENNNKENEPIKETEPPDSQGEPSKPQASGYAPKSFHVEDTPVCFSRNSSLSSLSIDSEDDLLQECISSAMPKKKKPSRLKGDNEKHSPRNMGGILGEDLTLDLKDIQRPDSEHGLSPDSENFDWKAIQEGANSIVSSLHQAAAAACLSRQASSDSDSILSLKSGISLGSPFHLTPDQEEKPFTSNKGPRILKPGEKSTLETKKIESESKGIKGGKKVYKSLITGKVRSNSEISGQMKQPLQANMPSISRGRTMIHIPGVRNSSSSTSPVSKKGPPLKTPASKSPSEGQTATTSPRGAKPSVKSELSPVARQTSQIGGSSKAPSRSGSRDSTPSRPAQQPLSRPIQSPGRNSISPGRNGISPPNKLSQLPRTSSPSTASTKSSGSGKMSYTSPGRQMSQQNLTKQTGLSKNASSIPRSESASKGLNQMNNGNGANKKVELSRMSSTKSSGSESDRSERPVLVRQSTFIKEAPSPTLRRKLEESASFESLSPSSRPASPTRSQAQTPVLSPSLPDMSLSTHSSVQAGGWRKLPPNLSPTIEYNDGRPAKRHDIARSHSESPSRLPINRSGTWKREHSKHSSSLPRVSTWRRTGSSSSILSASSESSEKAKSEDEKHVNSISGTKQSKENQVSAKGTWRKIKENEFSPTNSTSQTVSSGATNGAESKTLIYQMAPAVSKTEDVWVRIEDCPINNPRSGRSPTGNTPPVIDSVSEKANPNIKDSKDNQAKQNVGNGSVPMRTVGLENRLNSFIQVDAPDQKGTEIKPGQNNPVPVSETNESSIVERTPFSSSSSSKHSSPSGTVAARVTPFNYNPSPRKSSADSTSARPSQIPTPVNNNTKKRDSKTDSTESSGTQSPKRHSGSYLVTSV
Adenomatosis Polyposis Coli (APC): residues 2-2843 of P25054
APC fragment of amino acids 1464-1604: residues 1464-1604 of P25054
APC fragment of amino acids 1516-1595: residues 1516-1595 of P25054
APC fragment of amino acids 1690-1778: residues 1690-1778 of P25054
APC fragment of amino acids 1995-2083: residues 1995-2083 of P25054
UniProt O70240: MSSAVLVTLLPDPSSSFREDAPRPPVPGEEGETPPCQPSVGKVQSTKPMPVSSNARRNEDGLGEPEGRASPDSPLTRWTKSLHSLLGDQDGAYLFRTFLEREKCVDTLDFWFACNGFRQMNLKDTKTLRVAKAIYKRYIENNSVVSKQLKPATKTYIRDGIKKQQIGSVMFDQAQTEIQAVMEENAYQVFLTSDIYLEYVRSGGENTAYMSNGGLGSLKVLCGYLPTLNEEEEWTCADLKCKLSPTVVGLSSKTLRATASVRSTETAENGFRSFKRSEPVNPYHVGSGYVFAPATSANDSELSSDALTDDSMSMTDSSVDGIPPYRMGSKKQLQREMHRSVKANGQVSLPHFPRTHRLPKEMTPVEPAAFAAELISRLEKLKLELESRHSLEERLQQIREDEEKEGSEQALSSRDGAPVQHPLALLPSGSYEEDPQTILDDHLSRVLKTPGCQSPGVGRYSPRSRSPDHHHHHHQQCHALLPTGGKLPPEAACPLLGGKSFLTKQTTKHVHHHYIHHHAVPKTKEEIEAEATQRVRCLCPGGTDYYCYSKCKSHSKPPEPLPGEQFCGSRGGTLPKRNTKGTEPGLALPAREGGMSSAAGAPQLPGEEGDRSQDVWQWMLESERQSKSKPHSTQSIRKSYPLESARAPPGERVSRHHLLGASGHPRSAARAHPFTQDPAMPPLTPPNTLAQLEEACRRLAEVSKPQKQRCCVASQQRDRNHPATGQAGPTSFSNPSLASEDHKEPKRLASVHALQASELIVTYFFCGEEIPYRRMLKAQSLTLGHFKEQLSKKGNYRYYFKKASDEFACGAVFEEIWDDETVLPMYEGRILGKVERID

Measured: binding

conductin RGS domain (amino acids 78-200) (from UniProt O70240 78-200)
binds: all assays above

Reference: patent US7307143 (MAX DELBR CK INSTITUT FUR MOLEKULARE HEDIZIN, dated 2007)
